The nature of this assay: qHTS Assay to Find Inhibitors of Chronic Active B-Cell Receptor Signaling. The conditions noted are these: ABC-DLBCL IkBa-CBG/CBR reporter, luminescence ratio (green luciferase fused to IkBa over red control in TMD8 lymphoma cells), 4 h. The method in brief: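 Cell line TMD8 (human ABC DLBCL), stably expressing tet-inducible CBG68-IkBa fusion and CBR; IMDM/0.5% FBS; cpd up to 46 uM; dox induction, 4 h, 37C/5% CO2; dual luminescence; green/red ratio; MG132 control.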

The mark [1] stands for this setting: measured here: CBR red luminescence, cell number.
The mark [2] stands for this setting: measured here: IkBa-CBG green luminescence.

Molecules are shown by their SMILES. The list shows a part of the results. These are further read-outs of the screen, such as a control signal, another cell line or another target. No call is given for them. Compounds called inactive in the main read-out are mostly missing here. Potencies come from curve fits of mixed quality, noted in brackets.

On to `CSc1nc(C2CC2)cc(-c2cccs2)c1C#N`, for which the AC50 under setting [1] was 7.08 µM [rising, partial curve].

For the molecule `CCOC(=O)C1=C(c2ccccc2)Nc2ncnn2C1c1ccc(O)cc1` (centres undefined), the AC50 under setting [1] was 6.31 µM [rising, single point].

As to `COc1cc(C(=O)NCC2CCCO2)ccc1OCc1ccc(Cl)cc1` (centres undefined), under setting [1], the AC50 was 3.66 µM [rising, full curve, poor fit].

Take `CC(=O)c1ccc(NS(=O)(=O)Cc2ccc(Cl)cc2)cc1`: under setting [1], the AC50 is 0.58 µM [rising, full curve, poor fit].

`Oc1ccc(-c2csc(Nc3ccccn3)n2)cc1`: the AC50 under setting [1] is 11.2 µM [falling, partial curve].

For the molecule `Cn1c(NN)nc2ccccc2c1=O`, under setting [1], the AC50 is 2 µM [falling, single point].

Consider `Nc1cccc2c1C(=O)N(C(=O)/C=C/c1ccc(F)cc1)C2=O`, for which the AC50 under setting [1] is 10 µM [falling, partial curve].

Regarding `CC(C)NC(=O)N(C)C[C@@H]1Oc2c(NC(=O)C3CCOCC3)cccc2C(=O)N([C@@H](C)CO)C[C@H]1C`, under setting [1], the AC50 is 32.6 µM [rising, partial curve, poor fit].

On to `COCCNC(=O)CSc1c2c(nc3ccc(Cl)cc13)CCCC2`, for which the AC50 under setting [1] is 3.16 µM [falling, full curve].

On to `CCOC(CCc1c(C)nc(NC(C)=O)[nH]c1=O)OCC`, for which the AC50 under setting [1] was 35.5 µM [rising, single point].

As to `O=c1[nH]nc(Sc2ncnc3sccc23)n1CCc1ccccc1`, the AC50 under setting [1] is 7.94 µM [falling, partial curve, poor fit].

`COc1ccc(/C=C/C(=O)Nc2ccccc2)cc1OC`: under setting [1], the AC50 was 1.41 µM [falling, full curve].

As for `COc1ccc(N2CCN(c3ccc([N+](=O)[O-])nc3)CC2)cc1`, under setting [1], the half-maximal activity concentration (AC50) was 11.2 µM [rising, single point].

As to `COc1cccc(C(=O)CSc2nnc(COc3cccc4cccnc34)o2)c1`, the AC50 under setting [1] was 0.731 µM [falling, full curve, poor fit].

With `CCCc1nc(SCC(=O)c2ccc(OC)cc2)c2ccccc2n1`, the AC50 under setting [1] was 14.1 µM [falling, single point].

`Fc1ccc(-c2csc(Nc3ccccn3)n2)c(F)c1`: the AC50 under setting [1] is 14.1 µM [falling, partial curve].

Take `COCCCNC(=O)C1c2ccccc2Oc2ccccc21`: under setting [1], the AC50 was 0.501 µM [rising, full curve, poor fit].

Regarding `Cc1ccc(N2CCC(N3CCN(C4CCCCC4)C(CCO)C3)CC2)cc1` (centres undefined), the AC50 under setting [1] is 6.31 µM [rising, single point].

As for `COc1ccc(-c2cc(C(=O)N3CCCc4ccccc43)no2)cc1OC`, the AC50 under setting [1] was 12.6 µM [falling, partial curve].

Turning to `c1ccc(-c2ccccc2OCCOCCN2CCCCC2)cc1`, under setting [1], the AC50 is 32.6 µM [falling, single point].

Consider `CC(=O)C1=C(O)C(=O)N(Cc2ccccc2)C1c1ccc(Br)cc1` (centres undefined), for which, under setting [1], the AC50 was 12.6 µM [rising, single point].

For the molecule `Cc1cccc(NC(=O)c2cc(-c3c(C)cc(C)cc3O)n[nH]2)c1`, the AC50 under setting [1] is 11.2 µM [falling, partial curve, poor fit].

With `Cc1ccc(/C=N/NC(=O)c2cccc(NC(=O)c3ccccc3Cl)c2)o1`, the AC50 under setting [1] was 11.2 µM [falling, partial curve].

On to `COc1cccc(NC(=O)Nc2cccc(C(=O)O)c2)c1`, for which the AC50 under setting [1] is 1.78 µM [falling, full curve].

On to `COc1ccc(NC(=O)c2cc(S(=O)(=O)NCCC3=CCCCC3)ccc2F)cc1`, for which the AC50 under setting [1] was 15.8 µM [falling, single point].

For the molecule `O=C(COC(=O)Cc1c(Cl)cccc1Cl)NCC1CCCO1` (centres undefined), under setting [1], the AC50 is 2.82 µM [rising, full curve, poor fit].

On to `FC(F)(F)c1ccc(-c2noc(-c3ccccc3Br)n2)cc1`, for which, under setting [1], the AC50 is 4.47 µM [rising, partial curve, poor fit].

As for `CCCc1nc(SCC(=O)Nc2nccs2)c2ccccc2n1`, under setting [1], the AC50 was 1.58 µM [falling, full curve, poor fit].

Regarding `COc1cc(/C=C/C(=O)OCC(=O)N2CCCC2)ccc1OCC#N`, the AC50 under setting [1] was 23.1 µM [rising, single point].

On to `CN(C)/C=N/C(=S)Nc1ccccc1Cl`, for which, under setting [1], the AC50 was 0.562 µM [falling, full curve].

As to `CCC(=O)c1cc2c(cc1NC(=O)c1ccc(C)cc1)OCCO2`, under setting [1], the AC50 is 2.59 µM [rising, full curve, poor fit].

With `Cc1nc(C)c(CCNC(=O)c2cccc(Cl)c2)s1`, the AC50 under setting [1] is 16.4 µM [falling, single point].

As to `O=C(CSc1nnc(-c2cccnc2)o1)Nc1ccc(Br)cc1`, the AC50 under setting [1] was 3.55 µM [rising, full curve].

For `O=C(CSc1ccc(-c2ccc(F)cc2)nn1)Nc1ccc2c(c1)OCCO2`, the AC50 under setting [1] was 25.9 µM [rising, single point].

With `CC(C)CC(=O)N/C(N)=N/c1nc2ccccc2o1`, under setting [1], the AC50 was 3.16 µM [falling, full curve].

As for `C/C(CC(=O)Nc1ccc(Cl)cc1C(F)(F)F)=N\NC(=O)c1ccccn1`, the AC50 under setting [1] was 11.2 µM [falling, partial curve].

For the molecule `CC(=O)Nc1ccc(S(=O)(=O)NCC(=O)OCC(=O)NC(=O)c2cccn2C)cc1`, under setting [1], the AC50 is 2.82 µM [rising, single point].

For the molecule `COc1cc(NC(=S)NN2CCN(C)CC2)cc(OC)c1`, under setting [1], the AC50 was 32.6 µM [rising, partial curve, poor fit].

As for `O=C(NCCN1CCN(C(=O)c2ccc([N+](=O)[O-])cc2)CC1)C(=O)Nc1ccc(F)cc1`, under setting [1], the AC50 was 1.41 µM [falling, full curve, poor fit].

As to `COc1ccc(NS(=O)(=O)c2cccc(Cl)c2Cl)cc1S(=O)(=O)N1CCCCC1`, the AC50 is 1.84 µM [falling, full curve, poor fit] under setting [1] and 1.3 µM [rising, partial curve, poor fit] under setting [2].

As to `N#Cc1nc(-c2cccc3ccccc23)oc1N`, the AC50 under setting [1] is 6.51 µM [falling, single point].

`O=C(NCCc1ccccc1)C(=O)c1cn(CC(=O)N2CCCC2)c2ccccc12`: the AC50 under setting [1] is 1.41 µM [falling, full curve].

On to `Nn1c(COc2cccc(Br)c2)nnc1SCC(=O)NCC1CCCO1` (centres undefined), for which the AC50 under setting [1] was 0.461 µM [rising, full curve, poor fit].

As to `O=C(Nc1cc(=O)[nH]c2ncnn12)c1ccco1`, under setting [1], the AC50 was 20 µM [rising, single point].

For `NC(=O)c1ccsc1NC(=O)COC(=O)Cc1cccc2ccccc12`, under setting [1], the AC50 was 11.6 µM [falling, partial curve].

On to `CC1CCCCC1NC(=O)C(=O)NCC1CCCO1` (centres undefined), for which the AC50 under setting [1] is 7.31 µM [falling, partial curve, poor fit].

With `O=c1c2cn[nH]c2nc(SCc2ccccc2F)n1-c1ccc(Br)cc1`, the AC50 is, setting by setting: under setting [1], 25.9 µM [falling, partial curve]; under setting [2], 29.1 µM [rising, partial curve, poor fit].

In the case of `COc1ccc2c(c1)C(SCC(=O)NCCc1ccc(Cl)cc1)CC(C)(C)O2` (centres undefined), the AC50 under setting [1] was 29.1 µM [falling, partial curve, poor fit].

`Cc1cccc(/C=N/N2CCN(c3ccccc3)CC2)c1`: the AC50 under setting [1] was 7.31 µM [rising, partial curve, poor fit].

As to `CCCCN(Cc1ccccc1)C(=O)C1CCN(S(=O)(=O)c2c(C)noc2C)CC1`, the AC50 under setting [1] is 20.6 µM [rising, partial curve, poor fit].

In the case of `COC(=O)C1CCN(S(=O)(=O)c2ccc(OC)cc2)CC1`, the AC50 under setting [1] is 0.184 µM [rising, full curve, poor fit].

For `CC(C)N(Cc1nc(-c2ccccc2)no1)S(=O)(=O)c1ccccc1`, the AC50 under setting [1] was 9.2 µM [rising, partial curve].

On to `COc1ccc2nc(C)cc(SCC(=O)N/N=C/c3ccc(O)cc3O)c2c1`, for which, under setting [1], the AC50 was 23.1 µM [falling, single point].

In the case of `O=C(C[n+]1cc(-c2ccc(Cl)cc2)n2c1CCCCC2)c1ccccc1`, the AC50 under setting [1] was 2.82 µM [falling, full curve].

`CC(=O)OCCNc1cc(SCc2ccco2)c2nonc2c1[N+](=O)[O-]`: the AC50 under setting [1] is 16.4 µM [falling, partial curve, poor fit].

Regarding `COc1ccc(C(C)(C)C)cc1NC(=O)c1[nH]c(C)c(C(C)=O)c1C`, the AC50 under setting [1] was 20 µM [rising, partial curve, poor fit].

As for `CN(C)/C=N/c1cc(=O)n(C)c(=O)n1Cc1ccccc1`, the AC50 is 29.1 µM [rising, single point] under setting [1] and 16.4 µM [falling, single point] under setting [2].

Consider `Cc1cc2ccccc2nc1SCC(=O)N1c2ccccc2CC1C` (centres undefined), for which the AC50 under setting [1] is 23.1 µM [rising, partial curve, poor fit].

As for `CCOc1ccc(NC(=O)CCN2C(=O)c3ccccc3C2=O)cc1`, the AC50 under setting [1] was 0.891 µM [rising, full curve, poor fit].

Turning to `CCCC1=C(C(=O)OCC)C(c2cccs2)C(C#N)=C(N)O1` (centres undefined), the AC50 under setting [1] is 0.411 µM [falling, full curve, poor fit].

`Cc1c(O)ccc(/C=N/Nc2nc(-c3cccnc3)nc3ccccc23)c1O`: under setting [1], the half-maximal activity concentration (AC50) is 7.94 µM [falling, partial curve, poor fit].

With `CNC(=O)c1[nH]cnc1C(=O)Nc1ccccc1`, the AC50 under setting [1] was 3.66 µM [falling, partial curve, poor fit].

Regarding `Cc1ccc(N2CC(=O)N(NC(=O)c3sc4nc(C)cc(C)c4c3N)CC2=O)cc1`, the AC50 under setting [1] was 0.794 µM [falling, full curve, poor fit].

Turning to `Cn1c(-c2ccccc2)cnc1N`, the concentration at half-maximal activity (AC50) under setting [1] was 17.8 µM [rising, single point].

Consider `O=c1[nH]c(CSc2cccc[n+]2[O-])nc2ccccc12`, for which the AC50 is 35.5 µM [falling, single point] under setting [1] and 35.5 µM [falling, single point] under setting [2].

Source of the values: PubChem BioAssay AID493014 (National Center for Advancing Translational Sciences (NCATS), 2011).
